Literature values in PMC12508156, “Non-canonical dihydrolipoyl transacetylase promotes chemotherapy resistance via mitochondrial tetrahydrofolate signaling” (Nature Communications, 2025).

System: A549 cells
Details: read-out: cisplatin IC50; parental A549 cells; cited from earlier work
Description: The RNAi library contains 328 shRNA clones, and each gene was targeted by 2 ~ 8 clones (Fig. 1a). Eleven genes, including DLAT, were selected as unexplored lead hits with cisplatin-sensitizing potential and were further evaluated in A549^cisR, H1299, and KB-3-1^cisR, and two acetyltrans ...

## N.N.[Cl][Pt][Cl] [cisplatin]
  IC50: 2300 nM
